Data reported in patent US20220380310A1, “P2X7R ANTAGONISTS” (priority 2019, published 2022).
The match of structure and compound is tentative.

Chains of the proteins cited; added tags and fusions are not shown.
UniProt Q9UBL9, whole entry: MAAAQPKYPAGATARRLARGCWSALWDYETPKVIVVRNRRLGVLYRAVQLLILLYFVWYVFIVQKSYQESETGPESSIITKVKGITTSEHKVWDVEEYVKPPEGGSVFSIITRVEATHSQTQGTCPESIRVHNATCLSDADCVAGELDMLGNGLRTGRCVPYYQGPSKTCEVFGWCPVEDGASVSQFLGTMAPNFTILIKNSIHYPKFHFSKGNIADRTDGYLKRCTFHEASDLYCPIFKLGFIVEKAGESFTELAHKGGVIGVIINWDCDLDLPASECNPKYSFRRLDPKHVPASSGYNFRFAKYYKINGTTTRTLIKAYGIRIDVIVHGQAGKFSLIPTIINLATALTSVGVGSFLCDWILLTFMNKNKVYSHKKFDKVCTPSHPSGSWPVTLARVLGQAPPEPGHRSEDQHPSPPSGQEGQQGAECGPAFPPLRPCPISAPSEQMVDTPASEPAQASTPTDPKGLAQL
UniProt Q99571, whole entry: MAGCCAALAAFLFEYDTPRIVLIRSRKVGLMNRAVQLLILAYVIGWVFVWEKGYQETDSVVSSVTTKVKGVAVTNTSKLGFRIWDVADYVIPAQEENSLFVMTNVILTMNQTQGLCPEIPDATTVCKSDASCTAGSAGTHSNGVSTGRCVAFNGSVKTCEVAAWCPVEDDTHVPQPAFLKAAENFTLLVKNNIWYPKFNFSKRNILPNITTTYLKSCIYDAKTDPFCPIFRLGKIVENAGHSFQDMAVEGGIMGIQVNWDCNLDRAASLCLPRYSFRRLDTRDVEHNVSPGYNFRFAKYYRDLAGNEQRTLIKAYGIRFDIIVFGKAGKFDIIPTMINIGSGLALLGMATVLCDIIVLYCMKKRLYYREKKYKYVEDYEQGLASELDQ
UniProt Q99572, whole entry: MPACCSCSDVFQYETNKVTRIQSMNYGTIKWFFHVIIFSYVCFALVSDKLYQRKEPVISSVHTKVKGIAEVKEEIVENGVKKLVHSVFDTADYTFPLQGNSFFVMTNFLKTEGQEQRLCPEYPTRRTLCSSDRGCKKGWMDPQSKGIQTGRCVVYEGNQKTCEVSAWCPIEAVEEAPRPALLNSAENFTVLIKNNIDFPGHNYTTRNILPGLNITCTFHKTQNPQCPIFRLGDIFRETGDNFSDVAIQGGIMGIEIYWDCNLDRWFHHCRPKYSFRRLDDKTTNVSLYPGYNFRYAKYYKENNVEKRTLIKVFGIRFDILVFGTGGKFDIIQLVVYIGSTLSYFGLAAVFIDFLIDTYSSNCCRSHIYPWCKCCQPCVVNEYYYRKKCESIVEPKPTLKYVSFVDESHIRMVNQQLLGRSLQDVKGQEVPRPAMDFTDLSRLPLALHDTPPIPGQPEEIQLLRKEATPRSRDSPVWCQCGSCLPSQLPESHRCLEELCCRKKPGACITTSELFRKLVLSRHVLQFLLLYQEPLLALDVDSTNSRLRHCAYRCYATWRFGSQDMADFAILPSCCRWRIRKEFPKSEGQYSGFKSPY
UniProt P51575, whole entry: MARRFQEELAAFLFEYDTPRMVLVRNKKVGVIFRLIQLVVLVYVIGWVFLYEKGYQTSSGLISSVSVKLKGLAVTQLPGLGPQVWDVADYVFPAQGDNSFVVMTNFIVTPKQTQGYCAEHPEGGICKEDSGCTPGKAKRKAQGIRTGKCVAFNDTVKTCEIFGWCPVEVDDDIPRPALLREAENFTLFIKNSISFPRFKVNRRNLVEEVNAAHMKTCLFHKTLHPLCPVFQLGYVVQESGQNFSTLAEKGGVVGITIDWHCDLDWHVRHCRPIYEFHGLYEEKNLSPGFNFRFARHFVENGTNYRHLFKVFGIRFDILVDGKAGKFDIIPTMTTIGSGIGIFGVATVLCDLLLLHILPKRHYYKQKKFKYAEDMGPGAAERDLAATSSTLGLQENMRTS

Legend:
P2X2R = P2X2R (Homo sapiens, UniProt Q9UBL9); assay: Receptor-mediated calcium entrance assay (Calcium Assay), P2X2R
[1] = target: Human P2X2 receptor (P2X2R) (Homo sapiens, UniProt Q9UBL9); assay: Yo-Pro-1 uptake assay, P2X2R transfected HEK-293 cells; details: 5 μM ATP stimulus
Source text: Yo-Pro-1 Iodide (Cat. No Y3603 from Fisher Scientific) is a fluorescent DNA-binding dye with a MW of 629 Da. This method is based upon the Yo-Pro-1 entrance to cells through the dilated or “large pore form” of P2X7R and its binding to intracellular DNA whereby it increases its fluorescence intensity (J. Pharmacol. Exp. Ther. 308, 1053-1061). The dye has an absorption spectrum compatible with excitation at 488 nm by argon laser sources and its emission wavelength is in the range of 515-575 nm. This Yo-Pro-1 uptake was measured in HEK-293 cells transiently transfected with P2X7R (J. Biol. Chem. 290, 7930-7942). In Brief, HEK-293 cells were seeded in growth medium at approximately 20,000 cells/well in a 96-well plate on day 1. Transfection was performed on day 2 using Lipofectamine 2000 with the P2X7R DNA plasmid at the concentration of 1.7 μg/ml. The transfection solution was replaced with the growth medium 4 hours later. Fluorescent assays were conducted on day 4. […] Fluorescence increases were measured every 30 minutes in a microplate device with excitation at 475 nm and emission wavelength in the range of 500-550 nm. […]
Data used for analysis were from microplate readings 1 hour after bzATP stimulation. The result of each well was first normalized by its corresponding base microplate reading. The base microplate reading was the first reading right after all components were added. […]

[2] = target: Human P2X4 receptor (P2X4R) (Homo sapiens, UniProt Q99571); assay: Receptor-mediated calcium entrance assay (Calcium Assay), P2X4R transfected HEK-293 cells; details: 1 mM ATP stimulus
Source text: (§1) Human P2X1 receptor (P2X1R) is a member of P2X family. […] Thus, the calcium assay was used. In the calcium assay, P2X receptor activation leads to opening of ion channels, which increases intracellular calcium concentration. The increased intracellular calcium concentration can be detected by a calcium indicator dye such as Fluo-4 or Fluo-8. Molecular Probes™ Fluo-4, AM (Cat. No. F14201 from Fisher Scientific) was used in the assay. The procedures were similar as described in the Yo-Pro-1 assay until day 4. The construct of P2X1R for transient transfection to HEK-293 cells was the courtesy from Dr. Richard J. Evans laboratory (J. Biol. Chem. 279:9043-9055). […] At this point, the base level of fluorescence was obtained through the microplate reading—the base microplate reading for this assay. […] Activation of P2X1R opened the channel to allow influx of calcium, which was represented by fluorescence increases that were measured by the microplate device with excitation at 475 nm and emission wavelength in the range of 500-550 nm. The data were analyzed the same way as described before: The result of each well was first normalized by its corresponding base microplate reading. […]

P2X7R = P2X7R (Homo sapiens, UniProt Q99572); assay: Yo-Pro-1 uptake assay (Yo-Pro-1 Assay) in HEK-293 cells transiently transfected with P2X7R; details: for Percentage of activity remains in the presence of the compound at 5 μM, P2X7R (Yo-Pro-1 Assay): 30 μM bzATP stimulus, reading 1 hour after stimulation, transfected HEK-293 cells; for IC50: read-out: Estimated IC50, HEK-293 cells transiently transfected with P2X7R, 30 μM bzATP as stimulus, readings 1 hour after stimulation, estimated from dose-response curves
[3] = target: Human P2X1 receptor (P2X1R) (Homo sapiens, UniProt P51575); assay: Receptor-mediated calcium entrance assay (Calcium Assay), P2X1R transfected HEK-293 cells; details: ATP 20 μM stimulus
Source text: as §1

O=C(NCCc1ccccc1)C1CCCN(S(=O)(=O)c2ccc(N3CCCCC3)cc2)C1 (single isomer, unassigned) [#19]
Percentage of activity remains in the presence of the compound at 5 μM, P2X2R (Calcium Assay) (P2X2R): 97.0% | Percentage of activity remains in the presence of the compound at 5 μM, P2X2R (Yo-Pro-1 Assay) [1]: 50.3% | Percentage of activity remains in the presence of the compound at 5 μM, P2X4R (Calcium Assay) [2]: 75.1% | Percentage of activity remains in the presence of the compound at 5 μM, P2X7R (Yo-Pro-1 Assay) (P2X7R): −11.2% | IC50 (P2X7R): 400 nM | Percentage of activity remains in the presence of the compound at 5 μM, P2X1R (Calcium Assay) [3]: 54.4%

O=C(NCCc1ccccc1)C1CCCN(S(=O)(=O)c2ccc(N3CCCCC3)cc2)C1 (single isomer, unassigned) [#26]
Percentage of activity remains in the presence of the compound at 5 μM, P2X2R (Calcium Assay) (P2X2R): 103.2% | Percentage of activity remains in the presence of the compound at 5 μM, P2X2R (Yo-Pro-1 Assay) [1]: 68.5% | Percentage of activity remains in the presence of the compound at 5 μM, P2X4R (Calcium Assay) [2]: 67.3% | Percentage of activity remains in the presence of the compound at 5 μM, P2X7R (Yo-Pro-1 Assay) (P2X7R): 0.3% | IC50 (P2X7R): 3000 nM | Percentage of activity remains in the presence of the compound at 5 μM, P2X1R (Calcium Assay) [3]: 60.5%
